The list shows a part of the results. These are further read-outs of the screen, such as a control signal, another cell line or another target. No call is given for them. Most of these compounds were active or inconclusive in the main read-out, so they are no random draw. Potencies come from curve fits of mixed quality, noted in brackets.
Experiment: qHTS Assay to Find Inhibitors of Chronic Active B-Cell Receptor Signaling
Settings: ABC-DLBCL IkBa-CBG/CBR reporter, luminescence ratio (green luciferase fused to IkBa over red control in TMD8 lymphoma cells), 4 h
Outline: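 Concentration-response series (up to 46 uM) were applied to TMD8 dual-reporter cells for 4 h at 37C with doxycycline. Green/red ratio, after filter-overlap correction, defined %Activity; red signal alone was normalised to basal cells and zero luminescence.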

[1] = measured here: CBR red luminescence, cell number
[2] = measured here: IkBa-CBG green luminescence

| SMILES | AC50 [1] | AC50 [2] |
| --- | --- | --- |
| C=CCN1C(=O)C2(/C(=C(\O)c3ccc4c(c3)OCCO4)C(=O)C(=O)N2CCCOC)c2ccccc21 (stereo not given) | 5.8 µM [rising, full curve] |  |
| O=C(NN=C1CCCC1)c1[nH]c2ccc(Cl)cc2c1-c1ccccc1 | 3.98 µM [rising, full curve, poor fit] | 3.55 µM [falling, full curve, poor fit] |
| COc1ccc2c(CC(=O)Nc3ccccc3OC)coc2c1 | 0.398 µM [falling, full curve, poor fit] |  |
| CCOc1cc(CNCC(C)C)c(Cl)cc1OCC(=O)Nc1ccccc1 | 22.4 µM [falling, single point] |  |
| CCC(C(=O)NCc1ccco1)N(C(=O)CNS(=O)(=O)c1ccccc1)c1ccccc1C (stereo not given) | 35.5 µM [rising, single point] |  |
| O=C(O)CNc1nc(-c2ccccc2)nc2c1oc1ccccc12 |  | 17.8 µM [rising, partial curve, poor fit] |
| O=C(OCCCN=C1NS(=O)(=O)c2ccccc21)c1cccs1 | 3.55 µM [rising, full curve, poor fit] |  |
| Cc1cccc(-n2c(O)c(/C=N/NC(=O)c3ccccc3Cl)c3ccccc3c2=O)n1 | 7.31 µM [falling, partial curve] |  |
| Cc1cc(C)c(S(=O)(=O)NCC(c2cccs2)S(=O)(=O)c2ccccc2)c(C)c1 (stereo not given) | 0.251 µM [falling, full curve, poor fit] |  |
| COc1ccc2c(c1OC)C(=O)N(c1cccc(/C=C/C(=O)O)c1)C2 | 1.41 µM [falling, full curve] |  |
| O=C(CNC(=O)c1ccccc1)N/N=C/c1ccc([N+](=O)[O-])o1 | 29.1 µM [falling, single point] |  |
| ClC(Cl)(Cl)c1nc2ccccc2n2nncc12 | 17.8 µM [falling, partial curve] | 22.4 µM [falling, partial curve] |
| CCCc1noc2c1/C(=N\O)CC(c1ccccc1)C2 (stereo not given) | 20.6 µM [rising, partial curve, poor fit] |  |
| CCOC(=O)c1sc2nc(-c3ccco3)c3c(c2c1N)CC(C)(C)OC3 | 10 µM [falling, partial curve, poor fit] |  |
| COCCN1C=C(C(=O)OC)C(c2ccc(Cl)cc2)C(C(=O)OC)=C1 | 25.1 µM [falling, partial curve, poor fit] |  |
| COc1cc2c(c(OC)c1OC)-c1ccc(OC)c(=O)cc1[C@@H](NC(C)=O)CC2 | 3.55 µM [rising, partial curve, poor fit] | 0.251 µM [falling, full curve, poor fit] |
| O=C(Nc1ccc(N2CCCCC2)cc1)c1ccccc1 | 7.31 µM [falling, partial curve] |  |
| COc1ccc(OCC(N)=O)cc1 | 17.8 µM [rising, partial curve, poor fit] |  |
| COC(=O)c1ccc(SCc2cnc(Cl)s2)cc1 | 35.5 µM [rising, single point] |  |
| CCN(CC)S(=O)(=O)c1ccc(N2CCOCC2)c(NC(=O)c2cccc(C#N)c2)c1 | 0.562 µM [rising, full curve, poor fit] |  |

| SMILES | AC50 [1] | AC50 [2] |
| --- | --- | --- |
| Cc1nn(C)c(C)c1S(=O)(=O)N1CCCC(C(=O)N2CCN(c3ccc(Cl)cc3)CC2)C1 (stereo not given) | 8.2 µM [falling, full curve, poor fit] |  |
| COc1ccc(NC(=O)/C(C#N)=C/C=C/c2ccco2)cc1 | 18.4 µM [rising, single point] |  |
| CC1CCN(c2ccccc2NC(=S)NC(=O)c2cccs2)CC1 | 11.2 µM [rising, partial curve, poor fit] |  |
| CC(C)(C)NC(=S)N/N=C/c1cccnc1 | 35.5 µM [rising, single point] | 35.5 µM [falling, partial curve, poor fit] |
| C/C(=N\OC(=O)NC(C)C)c1sc(-c2ccc(Cl)cc2)nc1C | 35.5 µM [falling, single point] | 15.8 µM [rising, partial curve, poor fit] |
| Cc1ccc(CC(=O)Nc2ccc(Cl)cn2)cc1 | 0.562 µM [rising, full curve, poor fit] |  |
| C[C@H](CO)N1C[C@H](C)[C@H](CN(C)Cc2ccccc2)Oc2c(NC(=O)Nc3ccc(F)cc3)cccc2C1=O | 8.2 µM [falling, partial curve, poor fit] |  |
| O=C(CSc1ccccn1)NCc1ccc2c(c1)OCO2 | 1.26 µM [rising, partial curve, poor fit] |  |
| Cc1ccc(OCCSc2ncccn2)c(C)c1 | 1 µM [rising, full curve, poor fit] |  |
| O=[N+]([O-])c1cccc2ccc(N3CCOCC3)nc12 | 35.5 µM [rising, single point] |  |
| O=C(Nc1ccc([N+](=O)[O-])cc1)Nc1ccon1 | 7.94 µM [rising, partial curve] | 11.2 µM [falling, partial curve] |
| COc1ccc(NC(=O)c2cc(-c3ccc(C)cc3O)n[nH]2)c(OC)c1 | 11.2 µM [falling, partial curve] |  |
| O=Nc1c(-c2cccc([N+](=O)[O-])c2)nc2ncccn12 | 6.31 µM [falling, single point] |  |
| COc1ccccc1/C=C/C=N\N1CCN(Cc2ccccc2Cl)CC1 | 29.1 µM [falling, single point] |  |
| c1nc2sc3c(c2c2nnnn12)CCCC3 | 0.0651 µM [falling, full curve, poor fit] |  |
| COc1ccc(OCCCSc2ncccn2)cc1 | 14.6 µM [rising, partial curve, poor fit] |  |
| CCCCCC(=O)N(O)C1CC(=O)N(c2ccccc2)C1=O (stereo not given) | 7.08 µM [falling, partial curve, poor fit] |  |
| O=C(Nc1cccc([N+](=O)[O-])c1)Nn1cnnc1 | 35.5 µM [rising, single point] |  |
| O=C(N/N=C/c1cccnc1)c1sc2ccccc2c1Cl | 12.6 µM [falling, partial curve] |  |

Part of the list above in a different format.
SMILES	AC50 [1]	AC50 [2]
C/C(=N\OC(=O)NC(C)C)c1sc(-c2ccc(Cl)cc2)nc1C	35.5 µM [falling, single point]	15.8 µM [rising, partial curve, poor fit]
Cc1ccc(OCCSc2ncccn2)c(C)c1	1 µM [rising, full curve, poor fit]	
O=Nc1c(-c2cccc([N+](=O)[O-])c2)nc2ncccn12	6.31 µM [falling, single point]	
